In all, about 580,000 compounds went through this assay and about 6,100 (1.1%) were called active. This list was built around the results that the source calls inconclusive (neither active nor inactive); the mix of calls is not that of the screen. Calls come from the whole dose curve; as a rule, active = well fitted inhibition curve with a large enough effect; inconclusive = small, poorly fitted or top-dose-only effect, or another doubt; inactive = no such curve, though single readings can be large or run the other way. Potencies beside an inconclusive call are fits to weak or partial responses and may not hold up.
Each compound was assayed against Polyunsaturated fatty acid lipoxygenase ALOX12 (Homo sapiens) (UniProt P18054) (assay: Primary qHTS assay for inhibitors of human arachidonate 12S-lipoxygenase (ALOX12): Round 2). Conditions: purified 12hLO, xylenol orange hydroperoxide absorbance; activity change, negative = inhibition: at 108 µM (top of the series) unless noted.
In short: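 Purified human 12hLO at 150 nM in 25 mM Hepes, 0.01% Triton X-100, pH 7.0, preincubated 15 min at room temperature with compound. Reaction started with 40 uM arachidonic acid, 30 min at room temperature. Hydroperoxide measured by Fe-xylenol orange, 573/405 nm absorbance ratio.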
% is set by controls: 0 for no effect and ±100 for the full control effect; potency is the fitted concentration of half-maximal effect.

Protein sequences, listed by entry. Tags and fused reporters are not part of them. Lines headed by an entry give the natural chain unless they say otherwise; changes in a name come on top.
UniProt P18054: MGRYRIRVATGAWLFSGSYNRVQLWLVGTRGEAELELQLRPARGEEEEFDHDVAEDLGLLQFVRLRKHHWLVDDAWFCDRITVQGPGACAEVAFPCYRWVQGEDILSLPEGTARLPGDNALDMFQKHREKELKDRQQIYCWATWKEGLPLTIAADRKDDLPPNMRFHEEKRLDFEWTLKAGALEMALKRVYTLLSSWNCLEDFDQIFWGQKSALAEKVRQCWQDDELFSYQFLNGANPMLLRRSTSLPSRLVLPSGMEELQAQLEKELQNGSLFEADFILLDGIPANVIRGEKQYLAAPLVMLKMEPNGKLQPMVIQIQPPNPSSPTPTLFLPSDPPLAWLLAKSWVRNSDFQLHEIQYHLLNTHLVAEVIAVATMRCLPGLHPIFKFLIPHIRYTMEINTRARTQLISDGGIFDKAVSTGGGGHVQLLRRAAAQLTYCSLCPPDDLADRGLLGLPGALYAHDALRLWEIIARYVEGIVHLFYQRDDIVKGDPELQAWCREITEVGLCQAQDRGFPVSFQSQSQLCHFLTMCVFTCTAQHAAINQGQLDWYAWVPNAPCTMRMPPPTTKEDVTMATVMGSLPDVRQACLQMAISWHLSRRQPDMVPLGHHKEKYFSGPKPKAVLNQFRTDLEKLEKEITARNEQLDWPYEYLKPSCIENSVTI

SMILES | Potency | activity change, negative = inhibition
CCN1C(=O)C(CC(=O)Nc2ccc(F)cc2)N(Cc2ccco2)C1=S (centres undefined) | inconclusive: 100 µM [inhibitor, single point] | 
O=C1c2ccccc2S(=O)(=O)c2cc(C(=O)N3CCN(c4ccc(Cl)cn4)CC3)ccc21 | inconclusive: 50.1 µM [inhibitor, partial curve, poor fit] | 
NCCn1cc(C(=O)N2CCCC(c3[nH]ncc3Cc3ccccc3)C2)nn1 (centres undefined) | inconclusive: 17.8 µM [inhibitor, full curve, poor fit] | 
Cc1cc(C)nc(NN=CC2=C(N3CCOCC3)/C(=C/c3ccc(Cl)cc3)CC2)n1 | inconclusive: 50.1 µM [inhibitor, partial curve, poor fit] | 
COc1ccccc1-c1nc(S(=O)(=O)c2ccccc2)c(N2CCCCC2)o1 | inconclusive: 25.1 µM [inhibitor, partial curve] | 
Cc1ccc(-c2csc(=Nc3ccc(F)cc3)n2Cc2ccc3c(c2)OCO3)cc1C | inconclusive: 50.1 µM [inhibitor, partial curve, poor fit] | 
COc1ccc2c(c1)c(C(C(=O)O)N1CCN(Cc3cccnc3)CC1)cn2CCC(=O)O (centres undefined) | inconclusive: 5.62 µM [inhibitor, full curve, poor fit] | 
Cn1c(NCc2ccc(Cl)cc2)nc2ccccc21 | inconclusive: 50.1 µM [inhibitor, partial curve, poor fit] | 
CNC(=O)C1CN(C(=O)CCc2ncc(-c3ccccc3)o2)c2ccccc2O1 (centres undefined) | inconclusive: 100 µM [inhibitor, single point] | 
COc1ccc(C2CC(=O)Nc3sc(C(=O)Nc4cccc(C(F)(F)F)c4)c(C)c32)cc1O (centres undefined) | inconclusive: 7.08 µM [inhibitor, partial curve, poor fit] | 
Cc1ccc(OCC(=O)Nc2ccc3oc(C)nc3c2)cc1 | inconclusive: 50.1 µM [inhibitor, partial curve, poor fit] | 
CN(CCOc1cccc(C(F)(F)F)c1)Cc1ccccc1 | inactive | 
N#Cc1cc([N+](=O)[O-])ccc1NC(=O)COC(=O)C1CC2CCCC(C1)C2=O (centres undefined) | inactive | 
S=C(Nc1ccccc1)N1CCN(C/C=C/c2ccccc2)CC1 | inactive | 
Cc1cc2nc(-c3ccc(Cl)cc3)c(CC(C)(C)C)n2c(C)c1Br | inconclusive: 89.1 µM [inhibitor, single point] | 
CCOc1ccc(/C=N/N2C(C)CCCC2C)cc1OC (centres undefined) | inconclusive: 44.7 µM [inhibitor, partial curve] | 
O=C(O)c1ccn2c(C(=O)c3ccc(Cl)cc3)c(-c3ccccc3)cc2c1 | inactive | 
COc1ccccc1CNC(=O)CN(c1ccc(C)cc1)S(=O)(=O)c1c(C)n[nH]c1C | inconclusive: 89.1 µM [inhibitor, single point] | 
CN1C(=S)SC(N2OC3C(=O)N(c4ccccc4)C(=O)C3C2c2ccc(Cl)cc2)C1(C)C (centres undefined) | inactive | 
CCOc1cc(S(=O)(=O)NCc2ccc3c(c2)OCO3)c(C)cc1C | inconclusive: 50.1 µM [inhibitor, partial curve, poor fit] | 

SMILES | Potency | activity change, negative = inhibition
COc1ccc(C(=O)N2CCC3(CC2)NCCc2c3[nH]c3ccccc23)cc1F | inconclusive: 8.91 µM [inhibitor, full curve, poor fit] | 
COC(=O)C(C)N1C(=O)S/C(=C/c2ccc(C)cc2)C1=O (centres undefined) | inconclusive: 3.55 µM [inhibitor, full curve, poor fit] | 
CC(C)C[C@@H](NC(=O)[C@@H]1C[C@@H](NS(=O)(=O)c2cn(C)cn2)CCN1C(=O)COCC(=O)O)C(N)=O | inconclusive: 20 µM [inhibitor, full curve, poor fit] | 
Cc1cc(-n2c(=O)c3sccc3n(CC(=O)NC3CCc4ccccc43)c2=O)ccc1F (centres undefined) | inconclusive: 50.1 µM [inhibitor, partial curve, poor fit] | 
Fc1cccc(-n2cc(-c3ccccc3)c3c(=S)nc[nH]c32)c1 | inconclusive: 31.6 µM [inhibitor, partial curve, poor fit] | 
COc1cc([N+](=O)[O-])c(OC)cc1Nc1ccccc1C(=O)O | inconclusive: 50.1 µM [inhibitor, partial curve, poor fit] | 
CN(C)C(=O)C1CN(C(=O)CCc2ncc(-c3ccc(F)cc3F)o2)c2ccccc2O1 (centres undefined) | inconclusive: 44.7 µM [inhibitor, partial curve, poor fit] | 
O=C(CSc1nnc(-c2ccncc2)n1-c1ccccc1)NC1CC1 | inconclusive: 35.5 µM [inhibitor, single point] | 
COc1cccc(OC)c1-c1nc(C)c(C)cc1C(N)=O | inconclusive: 25.1 µM [inhibitor, full curve] | 
Cc1ccc(C(C(=O)NC2CCCCC2)N(C(=O)Cc2c[nH]c3ccccc23)c2ccccc2)o1 (centres undefined) | inconclusive: 39.8 µM [inhibitor, partial curve, poor fit] | 
CN1CCN(S(=O)(=O)c2ccc(NC(=S)NC(=O)C(C)(C)C)cc2)CC1 | inconclusive: 50.1 µM [inhibitor, partial curve, poor fit] | 
COc1ccc(OC)c(CNS(=O)(=O)c2ccccc2Br)c1 | inconclusive: 35.5 µM [inhibitor, single point] | 
C[C@]12C(=O)N(c3ccc(C(F)(F)F)cc3)C(=O)N1[C@H]1c3ccccc3OC[C@@H]1[C@H]2c1ccccc1 | inconclusive: 112 µM [inhibitor, partial curve, poor fit] | 
O=C1c2ccccc2CN1CCNC(=S)NC1CCCCC1 | inconclusive: 79.4 µM [inhibitor, partial curve, poor fit] | 
COc1ccc(C(=O)OCC(=O)c2ccco2)cc1[N+](=O)[O-] | inconclusive: 141 µM [inhibitor, single point] | 
O=c1[nH]c(O)c(/C=C2\C=Nc3ccc(Br)cc32)[nH]1 | inconclusive: 112 µM [inhibitor, single point] | 
O=c1c(N2CCc3ccccc3C2)csc2ccccc12 | inconclusive: 100 µM [inhibitor, partial curve, poor fit] | 
CCCCCC1CCC(c2ccc(-c3ccc(OCCC)cc3F)nc2)CC1 (centres undefined) | inactive | 
COc1cc(OC)cc(-c2nnc(SCc3ccc(C(=O)O)cc3)o2)c1 | inconclusive: 35.5 µM [inhibitor, partial curve, poor fit] | 
Cc1ccc2nc(SC(C)C(=O)NC3CCCc4ccccc43)[nH]c2c1 (centres undefined) | inactive | 

SMILES | Potency | activity change, negative = inhibition
CCN(C[C@H]1N[C@@](C)(C(=O)OC)[C@H]2C(=O)N(C)C(=O)[C@@H]12)C(=O)COC | inconclusive: 17.8 µM [inhibitor, partial curve, poor fit] | 
O=C1Nc2ccccc2CC12CCCN2C1CCCCC1 (centres undefined) | inconclusive: 28.2 µM [inhibitor, full curve, poor fit] | 
CCCn1c(CC)nc([N+](=O)[O-])c1Sc1ccc(C)cc1 | inconclusive: 44.7 µM [inhibitor, partial curve, poor fit] | 
Cc1ccc(C(=O)CC2(C#N)C(N)=C(C=O)CC2(C#N)C#N)cc1 (centres undefined) | inconclusive: 20 µM [inhibitor, full curve, poor fit] | 
CCOc1ccc(S(=O)(=O)N2CCC(C(=O)N3CCCCCC3)CC2)cc1C | inconclusive: 100 µM [inhibitor, partial curve, poor fit] | 
Cc1ccc(N(C(=O)CNC(=O)c2ccco2)C(C(=O)NC2CCCC2)c2cccnc2)c(C)c1 (centres undefined) | inactive | 
COc1ccc(NC(=O)Nc2ccc3c(c2)C(=O)N([C@H](C)CO)C[C@H](C)[C@H](CN(C)C)OCCCC[C@@H](C)O3)cc1 | inconclusive: 44.7 µM [inhibitor, partial curve, poor fit] | 
COc1ccc(Cn2nnnc2C(C(C)C)N2CCN(c3ccccc3OC)CC2)cc1 (centres undefined) | inconclusive: 12.6 µM [inhibitor, partial curve, poor fit] | 
CCOC(=O)c1c(Cc2ccc(Cl)cc2)c[nH]c1C | inconclusive: 50.1 µM [inhibitor, partial curve, poor fit] | 
CCCCn1c(=O)[nH]c(=O)c2c1nc(COC(=O)C1(c3ccccc3)CCC1)n2CCC | inconclusive: 50.1 µM [inhibitor, partial curve, poor fit] | 
CC(C)(C)C(=O)Cn1c(=N)n(Cc2ccccc2)c2ccccc21 | inconclusive: 39.8 µM [inhibitor, partial curve, poor fit] | 
CC1(C(=O)NCCc2c[nH]c3ccccc23)CCN1Cc1csc2ccccc12 (centres undefined) | inactive | 
C=Cc1ccc(Cn2c(C(=O)O)c(CNCc3ccccc3)c3ccc(C)cc32)cc1 | inconclusive: 89.1 µM [inhibitor, partial curve, poor fit] | 
Cc1ccc(C)c(C(C)NC(=O)Nc2ccccc2Br)c1 (centres undefined) |  | inconclusive: -33.2% [inhibitor]
COc1ccc(CN2C(=O)O[C@@H]3CN(Cc4cnc(C)[nH]4)C[C@@H]32)cc1OC | inconclusive: 7.08 µM [inhibitor, full curve, poor fit] | 
CC(CC(=O)Nc1ccc(S(=O)(=O)N2CCOCC2)cc1)c1ccccc1 (centres undefined) | inactive | 
CCCCN(C)C(=O)C1CCC(CNS(=O)(=O)c2ccc(Cl)cc2)CC1 (centres undefined) | inconclusive: 56.2 µM [inhibitor, partial curve, poor fit] | 
Cc1cccc(N=Nc2c(O)[nH]c3ccc(F)cc23)c1 | inconclusive: 100 µM [inhibitor, partial curve, poor fit] | 
COc1nc(Nc2ccc(O)cc2)nc(OC(C(F)(F)F)C(F)(F)F)n1 | inconclusive: 89.1 µM [inhibitor, single point] | 

3 neighbouring compounds out of the list so far, for reference:
SMILES | Potency | activity change, negative = inhibition
CC(C)C[C@@H](NC(=O)[C@@H]1C[C@@H](NS(=O)(=O)c2cn(C)cn2)CCN1C(=O)COCC(=O)O)C(N)=O | inconclusive: 20 µM [inhibitor, full curve, poor fit] | 
Cc1cc(-n2c(=O)c3sccc3n(CC(=O)NC3CCc4ccccc43)c2=O)ccc1F (centres undefined) | inconclusive: 50.1 µM [inhibitor, partial curve, poor fit] | 
Fc1cccc(-n2cc(-c3ccccc3)c3c(=S)nc[nH]c32)c1 | inconclusive: 31.6 µM [inhibitor, partial curve, poor fit] | 
